Source: patent publication US5386017A, “Alkenes for producing chemiluminescent 1, 2-dioxetane compounds” (priority 1990, dated 1995)
Some entries repeat one wording, which the source may state once for all of them.

Assay: Base triggering of chemiluminescence of hydroxy-substituted dioxetanes
Assay type: physicochemical
Conditions: for base-induced decomposition, chemiluminescence: room temperature

SMILES | chemiluminescence with other bases (methanol with KOH or o-xylene with n-BuLi) | base-induced decomposition, chemiluminescence
COC1(c2ccc3cc(O)ccc3c2)OOC12C1CC3CC(C1)CC2C3 (stereo not shown) [Dioxetane 2b, 4-(6-Hydroxy-2-naphthyl)-4-methoxyspiro[1,2-dioxetane-3,2'-adamantane]] | bright blue chemiluminescence with similar decay rates | –
Oc1ccc2c(c1)C1(OOC13C1CC4CC(C1)CC3C4)c1ccccc1-2 (stereo not shown) [Dioxetane 4a] | – | produced chemiluminescence at room temperature
Oc1ccc2c(c1)Oc1ccccc1C21OOC12C1CC3CC(C1)CC2C3 (stereo not shown) [Dioxetane 6a] | – | produced chemiluminescence at room temperature
COC1(c2cccc(O)c2)OOC12C1CC3CC(C1)CC2C3 (stereo not shown) [Dioxetane 8a] | – | produced chemiluminescence at room temperature
